Experimental data as given in article PMC7364817.

T1: FLAG-tagged SMCR8 (Smith-Magenis Syndrome Chromosome Region, Candidate 8) (UniProt Q8TEV9)
T1 sequence: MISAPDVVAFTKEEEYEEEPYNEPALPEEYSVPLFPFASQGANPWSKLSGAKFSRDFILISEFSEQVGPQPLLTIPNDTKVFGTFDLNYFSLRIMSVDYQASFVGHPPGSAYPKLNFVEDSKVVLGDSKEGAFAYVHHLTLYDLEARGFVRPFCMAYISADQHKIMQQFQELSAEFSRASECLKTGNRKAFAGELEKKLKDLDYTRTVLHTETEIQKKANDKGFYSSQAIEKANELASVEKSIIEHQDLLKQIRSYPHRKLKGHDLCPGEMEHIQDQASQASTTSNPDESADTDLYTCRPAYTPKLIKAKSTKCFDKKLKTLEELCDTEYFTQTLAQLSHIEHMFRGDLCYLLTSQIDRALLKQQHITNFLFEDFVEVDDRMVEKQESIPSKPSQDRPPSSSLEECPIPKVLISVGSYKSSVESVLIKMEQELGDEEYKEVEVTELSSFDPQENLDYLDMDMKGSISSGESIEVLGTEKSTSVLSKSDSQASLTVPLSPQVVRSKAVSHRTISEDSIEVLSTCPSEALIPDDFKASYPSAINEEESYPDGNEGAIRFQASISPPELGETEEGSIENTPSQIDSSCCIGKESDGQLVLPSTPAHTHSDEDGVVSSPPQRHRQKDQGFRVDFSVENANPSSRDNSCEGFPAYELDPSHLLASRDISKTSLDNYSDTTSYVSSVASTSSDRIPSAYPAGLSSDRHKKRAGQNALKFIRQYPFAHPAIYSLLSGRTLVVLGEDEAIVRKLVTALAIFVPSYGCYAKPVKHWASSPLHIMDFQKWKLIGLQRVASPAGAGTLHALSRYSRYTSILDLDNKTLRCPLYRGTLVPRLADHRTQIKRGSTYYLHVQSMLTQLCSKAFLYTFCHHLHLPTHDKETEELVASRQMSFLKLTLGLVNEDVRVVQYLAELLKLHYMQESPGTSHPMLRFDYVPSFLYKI

B1: adaptor related proteincomplex 3 Mu 1 subunit (protein, UniProt Q9Y2T2 1-418)
chain: MIHSLFLINCSGDIFLEKHWKSVVSQSVCDYFFEAQEKAADVENVPPVISTPHHYLISIYRDKLFFVSVIQTEVPPLFVIEFLHRVADTFQDYFGECSEAAIKDNVVIVYELLEEMLDNGFPLATESNILKELIKPPTILRSVVNSITGSSNVGDTLPTGQLSNIPWRRAGVKYTNNEAYFDVVEEIDAIIDKSGSTVFAEIQGVIDACIKLSGMPDLSLSFMNPRLLDDVSFHPCIRFKRWESERVLSFIPPDGNFRLISYRVSSQNLVAIPVYVKHSISFKENSSCGRFDITIGPKQNMGKTIEGITVTVHMPKVVLNMNLTPTQGSYTFDPVTKVLTWDVGKITPQKLPSLKGLVNLQSGAPKPEENPSLNIQFKIQQLAISGLKVNRLDMYGEKYKPFKGVKYVTKAGKFQVRT
B2: ribophorin I (protein, UniProt P04843 24-607)
chain: ASSEAPPLINEDVKRTVDLSSHLAKVTAEVVLAHLGGGSTSRATSFLLALEPELEARLAHLGVQVKGEDEEENNLEVRETKIKGKSGRFFTVKLPVALDPGAKISVIVETVYTHVLHPYPTQITQSEKQFVVFEGNHYFYSPYPTKTQTMRVKLASRNVESYTKLGNPTRSEDLLDYGPFRDVPAYSQDTFKVHYENNSPFLTITSMTRVIEVSHWGNIAVEENVDLKHTGAVLKGPFSRYDYQRQPDSGISSIRSFKTILPAAAQDVYYRDEIGNVSTSHLLILDDSVEMEIRPRFPLFGGWKTHYIVGYNLPSYEYLYNLGDQYALKMRFVDHVFDEQVIDSLTVKIILPEGAKNIEIDSPYEISRAPDELHYTYLDTFGRPVIVAYKKNLVEQHIQDIVVHYTFNKVLMLQEPLLVVAAFYILFFTVIIYVRLDFSITKDPAAEARMKVACITEQVLTLVNKRIGLYRHFDETVNRYKQSRDISTLNSGKKSLETEHKALTSEIALLQSRLKTEGSDLCDRVSEMQKLDAQVKELVLKSAVEAERLVAGKLKKDTYIENEKLISGKRQELVTKIDHILDAL
B3: ANKRD28 (protein, UniProt O15084 1-1053)
chain: MAFLKLRDQPSLVQAIFNGDPDEVRALIFKKEDVNFQDNEKRTPLHAAAYLGDAEIIELLILSGARVNAKDSKWLTPLHRAVASCSEEAVQVLLKHSADVNARDKNWQTPLHIAAANKAVKCAEALVPLLSNVNVSDRAGRTALHHAAFSGHGEMVKLLLSRGANINAFDKKDRRAIHWAAYMGHIEVVKLLVSHGAEVTCKDKKSYTPLHAAASSGMISVVKYLLDLGVDMNEPNAYGNTPLHVACYNGQDVVVNELIDCGAIVNQKNEKGFTPLHFAAASTHGALCLELLVGNGADVNMKSKDGKTPLHMTALHGRFSRSQTIIQSGAVIDCEDKNGNTPLHIAARYGHELLINTLITSGADTAKRGIHGMFPLHLAALSGFSDCCRKLLSSGFDIDTPDDFGRTCLHAAAAGGNLECLNLLLNTGADFNKKDKFGRSPLHYAAANCNYQCLFALVGSGASVNDLDERGCTPLHYAATSDTDGKCLEYLLRNDANPGIRDKQGYNAVHYSAAYGHRLCLQLIASETPLDVLMETSGTDMLSDSDNRATISPLHLAAYHGHHQALEVLVQSLLDLDVRNSSGRTPLDLAAFKGHVECVDVLINQGASILVKDYILKRTPIHAAATNGHSECLRLLIGNAEPQNAVDIQDGNGQTPLMLSVLNGHTDCVYSLLNKGANVDAKDKWGRTALHRGAVTGHEECVDALLQHGAKCLLRDSRGRTPIHLSAACGHIGVLGALLQSAASMDANPATADNHGYTALHWACYNGHETCVELLLEQEVFQKTEGNAFSPLHCAVINDNEGAAEMLIDTLGASIVNATDSKGRTPLHAAAFTDHVECLQLLLSHNAQVNSVDSTGKTPLMMAAENGQTNTVEMLVSSASAELTLQDNSKNTALHLACSKGHETSALLILEKITDRNLINATNAALQTPLHVAARNGLTMVVQELLGKGASVLAVDENGYTPALACAPNKDVADCLALILATMMPVSSSSPLSSLTFNAINRYTNTSKTVSFEALPIMRNEPSSYCSFNNIGGEQEYLYTDVDELNDSDSETY

The binders below were run against T1, FLAG-tagged SMCR8 (Smith-Magenis Syndrome Chromosome Region, Candidate 8) (assay: affinity purification with mass spectrometry; FL-SMCR8, C9orf72-FL or empty vector transfected in HEK 293T; α-FLAG agarose IP from whole cell lysates with or without RNase; LC-MS/MS; hits with three or more spectra and not detected in vector only control).

binding	Binder
binds	B1
binds	B2
binds	B3

Results are given in words; binding and its absence hold for the method and conditions named. Binding seen in cells or lysates may run through a third protein. A yes stands for co-enrichment or nearness to the bait. Other partners may have been found. Tags and fused reporters may be left off the sequences shown.
